Data: paper PMC6627515
No constants are given. Whether binding was seen depends on the method and setting. Binding seen in cells or lysates may run through a third protein. A yes stands for co-enrichment or nearness to the bait. Other partners may have been found.

By UniProt entry, the sequences of proteins in these tests, tags left out. Where a name states a change or a piece, a line headed by the entry shows the natural chain unless it says otherwise.
UniProt B7F1Z4: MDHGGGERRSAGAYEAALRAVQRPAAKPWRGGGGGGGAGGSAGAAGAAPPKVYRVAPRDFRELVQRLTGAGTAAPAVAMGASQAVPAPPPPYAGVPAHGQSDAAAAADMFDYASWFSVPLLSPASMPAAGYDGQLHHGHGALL

Target: OsVQ13 green fluorescent protein (GFP) fusion protein (rice (Oryza sativa L.)) (UniProt B7F1Z4)
Experiment: affinity purification with mass spectrometry; nuclear proteins of OsVQ13GFP-ox rice leaf blades incubated with magnetic bead-conjugated GFP-Trap overnight at 4 °C, washed five times; eluted proteins separated by SDS-PAGE, Oriole-stained bands identified by MALDI-TOF MS; five independent experiments; GFP-ox plants as negative control

| binding | Binder |
| --- | --- |
| binds | NAC domain-containing protein 5 (OsNAC5) (protein, UniProt Q53NF7 1-329) MECGGALQLPPGFRFHPTDDELVMYYLCRKCGGLPLAAPVIAEVDLYKFNPWDLPERAMGGEKEWYFFSPRDRKYPNGQRPNRAAGTGYWKATGADKPVGSPRAVAIKKALVFYAGKPPKGVKTNWIMHEYRLADVDRSAAARKLSKSSHNALRLDDWVLCRIYNKKGVIERYDTVDAGEDVKPAAAAAAAKGGRIGGGGGAAAMKVELSDYGFYDQEPESEMLCFDRSGSADRDSMPRLHTDSSGSEHVLSPSPSPDDFPGGGDHDYAESQPSGGCGGWPGVDWAAVGDDGFVIDSSLFELPSPAAFSRAAGDGAAFGDMFTYLQKPF |
| binds | MADS-box transcription factor 2 (OsMADS2) (protein, UniProt Q40702 1-209) MGRGKIEIKRIENSTNRQVTFSKRRSGILKKAREISVLCDAEVGVVIFSSAGKLYDYCSPKTSLSRILEKYQTNSGKILWDEKHKSLSAEIDRIKKENDNMQIELRHLKGEDLNSLQPKELIMIEEALDNGIVNVNDKLMDHWERHVRTDKMLEDENKLLAFKLHQQDIALSGSMRDLELGYHPDRDFAAQMPITFRVQPSHPNLQENN |
